Data: US20040185016A1, “Compositions for treatment of hyperpigmentation and methods for making and using such compositions” (priority 2002, published 2004)
Where two headings read alike, the source gives them in different places. For at least one compound, name, drawing or mass did not settle the structure.

Tests used:
[1] = in composition of Example 1; 30 and 90 days
Method: The composition of Example 1 was subjected to a range of temperatures over a period of time from 30 to 90 days to determine the chemical stability of selected ingredients. […] “FT” refers to freeze thaw conditions (−10° to −20° C.) where the product is exposed to freezing conditions for two days and then allowed to that at controlled room temperature (15° to 30° C.) for the next five days.

[2] = chemical stability of selected ingredients in the composition of Example 3 (HPLC assay); details: in composition of Example 3; 30 to 90 days

Q: Which “ingredient activity after exposure of the formulation to high and low temperatures” value [1] does the source give for CCCCC(CC)COC(=O)C=Cc1ccc(OC)cc1 (centres unmarked) [octyl methoxycinnamate] here?
A: Its value is “remained chemically active”.

Q: And the “ingredient activity after exposure of the formulation to high and low temperatures” value [2]?
A: Its value is “remained active”.
